Construct, isoform or probe ends are uncertain for at least one entry. A weaker result is weaker than the reference pair of the same experiment. Protein sequences can lack the tags named with them.
Target: T1, MBP-AgrR (Cupriavidus metallidurans NA4) (UniProt Q1LMJ6)
T1 sequence (looked up): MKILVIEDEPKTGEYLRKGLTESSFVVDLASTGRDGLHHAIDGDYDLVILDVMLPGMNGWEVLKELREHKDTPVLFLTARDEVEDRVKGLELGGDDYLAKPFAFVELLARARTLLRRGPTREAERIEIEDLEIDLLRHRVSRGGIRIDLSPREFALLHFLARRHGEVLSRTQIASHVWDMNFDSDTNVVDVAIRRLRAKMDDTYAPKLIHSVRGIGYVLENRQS
Assay: EMSA
Details: 5.85 uM protein; 25 mM Na2HPO4, 150 mM NaCl, 0.1 mM EDTA, 2 mM MgCl2, 1 mM DTT, 10% glycerol, pH 7.0, 22 C, about 0.1 nM probe, 25 ug/ml sonicated salmon sperm DNA; recombinant protein; residues 1-224; protein details: N-terminal MBP (pMAL-c2X); label: 5'-32P single end; probe letters rebuilt from the primers and the …

GTTTTCATCCTCAGCTGCACGGGCTCACAGCTCAAACGATGCCGCCGATGATAACGGCGCAGGTTCGCCTATTGGATGACAAGACTGTAATCGTTTCGTCCCCGTTTGAAAGGGTGTTGCGTACATAGAATCGCCGCTAATTCTGGATGACCGGCGCCGACAGCGCCTGGAGTGAACCATGTGGATTGTGC (double strand) [agrR control region]
binding result: binds more weakly

Source: PMC7380067
